US20180185510A1, “ANTIBODY DRUG CONJUGATES OF KINESIN SPINDEL PROTEIN (KSP) INHIBITORS WITH ANTI-B7H3-ANTIBODIES” (BAYER PHARMA AKTIENGESELLSCHAFT, priority 2015, published 2018)
Results are given in words; binding and its absence hold for the method and conditions named. Some results given as binding are weak or reduced against the parent protein; the word gives no strength.

T1: human B7H3 (RnDSystems, 2318-B3-050/CF) (human, UniProt Q5ZPR3 29-461)
T1 construct: Bought antigen, detected with an anti-His HRP antibody, so a His tag is implied
T1 sequence (looked up): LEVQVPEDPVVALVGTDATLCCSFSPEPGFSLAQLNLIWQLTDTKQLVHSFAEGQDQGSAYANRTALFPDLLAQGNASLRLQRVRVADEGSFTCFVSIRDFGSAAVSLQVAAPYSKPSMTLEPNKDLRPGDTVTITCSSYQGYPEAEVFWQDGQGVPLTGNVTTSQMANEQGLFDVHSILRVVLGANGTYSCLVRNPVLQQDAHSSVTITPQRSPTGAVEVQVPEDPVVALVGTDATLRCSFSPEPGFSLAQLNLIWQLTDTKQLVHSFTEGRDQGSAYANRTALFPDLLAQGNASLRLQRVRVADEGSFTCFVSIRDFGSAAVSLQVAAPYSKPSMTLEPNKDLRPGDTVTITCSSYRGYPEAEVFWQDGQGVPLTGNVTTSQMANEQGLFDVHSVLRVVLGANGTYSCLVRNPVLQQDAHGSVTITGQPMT


Assays:
[1] = biological target: T1, human B7H3 (RnDSystems, 2318-B3-050/CF); test: as described in AK-Example 1 (ELISA)
[2] = biological target: T1, human B7H3 (RnDSystems, 2318-B3-050/CF); test: ELISA (AK-Example 1); Tab. AK-2 not given

binding [1]	binding [2]	Binder
binds	binds	TPP-6850 (antibody, human IgG1, kappa, V domains shown) VH: EVQLVQSGAEVKKPGASVKVSCKASGYTFTIYNVHWIRQAPGQGLEWMGTIFPGNGDTSYNQKFKDRATLTTDKSTKTAYMELRSLRSDDTAVYYCARWDDGNVGFAHWGQGTLVTVSS VL: DIQMTQSPSSLSASVGDRVTITCRASENINNYLTWFQQKPGKAPKLLVYHAKTLAEGVPSRFSGSGSGTQFTLTISSLQPEDFATYYCQHHYGTPPTFGQGTKLEIKR
binds	binds	TPP-6642 (antibody, human IgG1, kappa, V domains shown) VH: EVQLVQSGAEVKKPGASVKVSCKASGYTFTIYNVHWVRQAPGQGLEWMGTIFPGNGDTSYNQKFKDKVTMTTDTSTSTAYMELSSLRSEDTAVYYCARWDDGNVGFAHWGQGTLVTVSS VL: DIQMTQSPSSLSASVGDRVTITCRASENINNYLTWFQQKQGKSPQLLIYHAKTLAEGVPSRFSGSGSGTDFTLTISSLQPEDFATYYCQHHYGTPPTFGGGTKVEIKR
